# Assay results from patent US20180360040A1, “PESTICIDAL COMPOUNDS AND THEIR USES” (priority 2015, published 2018).
# Some results were stated once for a whole list of compounds, not compound by compound.
# Test system: Spodoptera littoralis
# Assay: Example B5: Spodoptera littoralis (Egyptian cotton leaf worm), sprayed cotton leaf discs
# Assay type: in vivo
# Conditions: application rate 200 ppm; L1 larvae; 3 days after infestation
# Method: Example B5: Spodoptera littoralis (Egyptian Cotton Leaf Worm)
# Cotton leaf discs were placed onto agar in 24-well microtiter plates and sprayed with aqueous test solutions prepared from 10,000 ppm DMSO stock solutions. After drying the leaf discs were infested with five L1 larvae. The samples were assessed for mortality, anti-feeding effect, and growth inhibition in comparison to untreated samples 3 days after infestation. Control of Spodoptera littoralis by a test sample is given when at least one of the categories mortality, anti-feedant effect, and growth inhibition is higher than the untreated sample.
row,Structure (SMILES),"control (mortality, anti-feeding effect, growth inhibition)"
1,CN1OC(c2cccc(Cl)c2Cl)(C2CC2)N=C1NC(C)(C)C (racemic) [Compound P1.61],at least 80%
2,CN1OC(c2ccc(F)cc2F)(C2CC2)N=C1N(C)C(C)(C)C (racemic) [Compound P1.63],at least 80%
3,CN1OC(c2cccc(Cl)c2Cl)(C2CC2)N=C1N(C)C(C)(C)C (racemic) [Compound P1.64],at least 80%
4,CN1OC(c2cccc(F)c2F)(C2CC2)N=C1NC(C)(C)C (racemic) [Compound P1.65],at least 80%
5,CN1OC(c2cccc(F)c2F)(C2CC2)N=C1N(C)C(C)(C)C (racemic) [Compound P1.66],at least 80%
6,CN1OC(CC2CC2)(c2ccc(F)cc2)N=C1NC(C)(C)C (racemic) [Compound P1.70],at least 80%
7,CN1OC(c2cccc(Br)c2)(C2CC2)N=C1NC(C)(C)C (racemic) [Compound P1.72],at least 80%
8,CN1OC(c2cccc(C3CC3)c2)(C2CC2)N=C1NC(C)(C)C (racemic) [Compound P1.74],at least 80%
9,CN1OC(c2cccc(Br)c2)(C2CC2)N=C1N(C)C(C)(C)C (racemic) [Compound P1.75],at least 80%
10,CCC1(c2cccc(Cl)c2)N=C(NC(C)(C)C)N(C)O1 (racemic) [Compound P1.158],at least 80%
11,CCCCC1(c2ccc(F)cc2)N=C(N(C)C(C)(C)C)N(C)O1 (racemic) [Compound P1.163],at least 80%
12,CCCCC1(c2ccc(F)cc2)N=C(NC(C)(C)C)N(C)O1 (racemic) [Compound P1.164],at least 80%
13,CCCC1(c2cccc(F)c2)N=C(N(C)C(C)(C)C)N(C)O1 (racemic) [Compound P1.166],at least 80%
14,CCCC1(c2cccc(F)c2)N=C(NC(C)(C)C)N(C)O1 (racemic) [Compound P1.167],at least 80%
15,CCCC1(c2ccccc2F)N=C(NC(C)(C)C)N(C)O1 (racemic) [Compound P1.169],at least 80%
16,CCCC1(c2cccc(Cl)c2)N=C(N(C)C(C)(C)C)N(C)O1 (racemic) [Compound P1.170],at least 80%
17,CCCC1(c2cccc(Cl)c2)N=C(NC(C)(C)C)N(C)O1 (racemic) [Compound P1.171],at least 80%
18,CCC1(c2ccc(Cl)cc2)N=C(NC(C)(C)C)N(C)O1 (racemic) [Compound P1.173],at least 80%
19,CCCC1(c2ccc(Cl)cc2)N=C(N(C)C(C)(C)C)N(C)O1 (racemic) [Compound P1.179],at least 80%
20,CCCC1(c2ccc(Cl)cc2)N=C(NC(C)(C)C)N(C)O1 (racemic) [Compound P1.180],at least 80%
21,CCCC1(c2ccc(OC)cc2)N=C(NC(C)(C)C)N(C)O1 (racemic) [Compound P1.182],at least 80%
22,CN1OC(c2ccccc2)(c2ccc(F)cc2)N=C1N(C)C(C)(C)C (centres unmarked) [Compound P1.1],at least 80%

row,Structure (SMILES),"control (mortality, anti-feeding effect, growth inhibition)"
1,CN1OC(c2ccc(F)cc2)(c2ccc(F)cc2)N=C1NC(C)(C)C [Compound P1.2],at least 80%
2,CN1OC(c2ccc(Cl)cc2)(C2CC2)N=C1NC(C)(C)C (centres unmarked) [Compound P1.3],at least 80%
3,CN1OC(c2ccccc2)(c2ccccc2)N=C1NC(C)(C)C [Compound P1.4],at least 80%
4,CN1OC(c2ccccc2)(c2ccc(F)cc2)N=C1NC(C)(C)C (centres unmarked) [Compound P1.5],at least 80%
5,CCN(C1=NC(c2ccccc2)(c2cccc(F)c2)ON1C)C(C)(C)C (centres unmarked) [Compound P1.6],at least 80%
6,CN1OC(c2cccc(Cl)c2)(C2CC2)N=C1NC(C)(C)C (centres unmarked) [Compound P1.9],at least 80%
7,CN1OC(c2ccc(F)cc2)(C2CC2)N=C1NC(C)(C)C (centres unmarked) [Compound P1.13],at least 80%
8,COc1ccc(C2(C3CC3)N=C(NC(C)(C)C)N(C)O2)cc1 (centres unmarked) [Compound P1.14],at least 80%
9,CN1OC(c2ccccc2)(c2ccc(OC(F)(F)F)cc2)N=C1NC(C)(C)C (centres unmarked) [Compound P1.22],at least 80%
10,CN1OC(c2ccccc2)(c2ccc(OC(F)(F)F)cc2)N=C1N(C)C(C)(C)C (centres unmarked) [Compound P1.23],at least 80%
11,CCN(C1=NC(c2ccccc2)(c2ccc(OC(F)(F)F)cc2)ON1C)C(C)(C)C (centres unmarked) [Compound P1.24],at least 80%
12,CCN1OC(c2ccc(F)cc2)(c2ccc(F)cc2)N=C1N(C)C(C)(C)C [Compound P1.25],at least 80%
13,CN1OC(c2cccc(F)c2)(C2CC2)N=C1NC(C)(C)C (centres unmarked) [Compound P1.28],at least 80%
14,CN1OC(c2ccc(OC(F)(F)F)cc2)(C2CC2)N=C1NC(C)(C)C (centres unmarked) [Compound P1.29],at least 80%
15,CN1OC(c2ccc(C(F)(F)F)cc2)(C2CC2)N=C1NC(C)(C)C (centres unmarked) [Compound P1.32],at least 80%
16,CN1OC(c2ccc(Cl)c(Cl)c2)(C2CC2)N=C1NC(C)(C)C (centres unmarked) [Compound P1.34],at least 80%
17,CN1OC(c2ccc(F)c(F)c2)(C2CC2)N=C1NC(C)(C)C (centres unmarked) [Compound P1.35],at least 80%
18,CN1OC(c2cc(Cl)cc(Cl)c2)(C2CC2)N=C1NC(C)(C)C (centres unmarked) [Compound P1.36],at least 80%
19,CN1OC(c2ccccc2F)(C2CC2)N=C1NC(C)(C)C (centres unmarked) [Compound P1.42],at least 80%
20,CN1OC(c2ccccc2F)(C2CC2)N=C1N(C)C(C)(C)C (centres unmarked) [Compound P1.44],at least 80%
21,CN1OC(CCc2ccccc2)(c2ccc(F)cc2)N=C1NC(C)(C)C (centres unmarked) [Compound P1.47],at least 80%
22,CN1OC(c2ccccc2)(c2cccc(C(F)(F)F)c2)N=C1NC(C)(C)C (centres unmarked) [Compound P1.50],at least 80%

row,Structure (SMILES),"control (mortality, anti-feeding effect, growth inhibition)"
1,CN1OC(c2ccccc2)(c2cccc(C(F)(F)F)c2)N=C1N(C)C(C)(C)C (centres unmarked) [Compound P1.51],at least 80%
2,CN1OC(c2ccc(Br)cc2)(C2CC2)N=C1NC(C)(C)C (centres unmarked) [Compound P1.52],at least 80%
3,CN1OC(c2ccc(C3CC3)cc2)(C2CC2)N=C1NC(C)(C)C (centres unmarked) [Compound P1.54],at least 80%
4,CN1OC(c2cccc(C(F)(F)F)c2)(C2CC2)N=C1NC(C)(C)C (centres unmarked) [Compound P1.55],at least 80%
5,CN1OC(c2ccccc2Cl)(C2CC2)N=C1NC(C)(C)C (centres unmarked) [Compound P1.56],at least 80%
6,CN1OC(c2ccc(Cl)cc2Cl)(C2CC2)N=C1NC(C)(C)C (centres unmarked) [Compound P1.59],at least 80%
7,CN1OC(c2ccc(F)cc2F)(C2CC2)N=C1NC(C)(C)C (centres unmarked) [Compound P1.60],at least 80%
8,CN1OC(c2ccc(F)cc2)(C2CC2)N=C1N(C)C1(C)CC1 (centres unmarked) [Compound P1.93],at least 80%
9,CCCC1(c2ccccc2)N=C(NC(C)(C)C)N(C)O1 (centres unmarked) [Compound P1.98],at least 80%
10,CCCC1(c2ccc(F)cc2)N=C(NC(C)(C)C)N(C)O1 (centres unmarked) [Compound P1.100],at least 80%
11,CCC(CC)(CC)NC1=NC(c2ccc(F)cc2)(C2CC2)ON1C (centres unmarked) [Compound P1.104],at least 80%
12,CCC(C)(CC)NC1=NC(c2ccc(F)cc2)(C2CC2)ON1C (centres unmarked) [Compound P1.106],at least 80%
13,C#CC(C)(C)NC1=NC(c2ccc(F)cc2)(C2CC2)ON1C (centres unmarked) [Compound P1.108],at least 80%
14,CN1OC(c2cccc(F)c2)(c2cccc(F)c2)N=C1N(C)C(C)(C)C [Compound P1.115],at least 80%
15,CCN1OC(c2ccc(F)cc2)(c2ccc(F)cc2)N=C1NC(C)(C)C [Compound P1.117],at least 80%
16,CCN1OC(c2ccc(F)cc2)(c2ccc(F)cc2)N=C1N(CC)C(C)(C)C [Compound P1.118],at least 80%
17,CN1OC(c2ccc(F)cc2)(c2cccc3ccccc23)N=C1NC(C)(C)C (centres unmarked) [Compound P1.120],at least 80%
18,CCN(C1=NC(c2ccc(F)cc2)(c2cccc3ccccc23)ON1C)C(C)(C)C (centres unmarked) [Compound P1.122],at least 80%
19,CN1OC(c2ccccc2)(c2ccc(Cl)cc2)N=C1N(C)C(C)(C)C (centres unmarked) [Compound P1.124],at least 80%
20,CN1OC(c2ccccc2)(c2cccc(Cl)c2)N=C1N(C)C(C)(C)C (centres unmarked) [Compound P1.125],at least 80%
21,CN1OC(c2ccc(F)cc2)(c2ccc3ccccc3c2)N=C1NC(C)(C)C (centres unmarked) [Compound P1.128],at least 80%
